Source: patent US20210007977A1, “COMPOSITIONS AND METHODS OF AMELIORATING PHARMACEUTICAL AVERSIVENESS WITH SALTS” (Monell Chemical Senses Center, priority 2018, published 2021)

How the values were obtained:
Format in all cases: in vivo, human
[1] = Perceived bitterness intensity (gLMS, rinse and spit): praziquantel in di water vs. in 100 mM Na Gluconate; details: for subjects reporting reduced bitterness in 100 mM Na Gluconate compared to that in di water: drug concentration 0.0507 mg/mL; for subjects reporting reduced bitterness in Na Gluconate compared to that in di water: drug concentration 0.152 mg/mL
Description: (§1) Methods of evaluating the sensory properties in the Examples 2 to 4 were adopted from Breslin P A, and Tharp C D, “Reduction of saltiness and bitterness after a chlorhexidine rinse,” Chem Senses. 2001 February; 26(2):105-16. More details are illustrated below.
(§2) Subjects participated in the study after providing informed consent. Gender of the subjects was balanced between male and female. The subjects were adults with ages ranging from 20 years old to 50 years old. […] The participants were asked to refrain from eating, drinking, or chewing gum for 1 hr prior to testing. Subjects were trained to use the General Labeled Magnitude Scale (gLMS) following standard published procedures. See. e.g., Breslin P A, and Tharp C D. “Reduction of saltiness and bitterness after a chlorhexidine rinse,” Chem Senses. 2001 February; 26(2):105-16; Keast and Breslin, “Bitterness suppression with zinc sulfate and Na-cyclamate: a model of combined peripheral and central neural approaches to flavor modification.” Pharm Res. 2005 November; 22(11):1970-7. Epub 2005 Aug. 26; Green et al, “Evaluating the ‘Labeled Magnitude Scale’ for measuring sensations of taste and smell.” Chem Senses. 1996 June; 21(3):323-34; Barry G. Green, et al, “Derivation and evaluation of a semantic scale of oral sensation magnitude with apparent ratio properties,” Chemical Senses, Volume 18, Issue 6, 1 Dec. 1993, Pages 683-702; and Bartoshuk L M, “Comparing sensory experiences across individuals: recent psychophysical advances illuminate genetic variation in taste perception.” Chem Senses. 2000 August; 25(4):447-60.
(§3) Racemic praziquantel and L-praziquantel were diluted/dissolved in deionized (di) filtered water upon use into various concentrations, including 0.0019 mg/mL, 0.0056 mg/mL, 0.0169 mg/mL, 0.0507 mg/mL, and 0.152 mg/mL. Racemic praziquantel and L-praziquantel of the above indicated concentrations were also prepared in 100 mM Na Gluconate. Piperaquine was prepared and dissolved in deionized filtered water or in 1M KOH to a final concentration of 4 mg/mL, 8 mg/mL, 16 mg/mL, 26 mg/mL, or 32 mg/mL, respectively. All solutions were stored on ice or at 4° C. to 8° C. and brought up to room temperature prior to testing.
The following testing protocol was performed. The tested solutions were provided to the subjects in random order. Subjects rinsed with di water at least four times over a 2-minute period prior to tasting each solution. The subjects were instructed to wear nose clips to eliminate olfactory input, pour the whole solution in their mouth for 3-5 seconds, and rate the perceived sensation (including bitterness, sourness, astringency and nausea) intensity of the solution while it remained in the mouth, prior to expectorating. Taste intensity was recorded on a computerized gLMS, analyzed and plotted.
Seven subjects participated this study. 0.0019 mg/mL, 0.0056 mg/mL, 0.0169 mg/mL, 0.0507 mg/mL, and 0.152 mg/mL of racemic praziquantel in di water or in 100 mM Na Gluconate was prepared and provided to the subjects in random order according to the protocols described in Example 1.
Similarly, 7 subjects were given 0.0019 mg/mL, 0.0056 mg/mL, 0.0169 mg/mL, 0.0507 mg/mL, and 0.152 mg/mL of L-praziquantel in di water or in 100 mM Na Gluconate according to the protocols described in Example 1.

[2] = Perceived bitterness intensity (gLMS, rinse and spit): L-praziquantel vs. racemic praziquantel in di water
Description: as §1, §2
Racemic praziquantel and L-praziquantel were diluted/dissolved in deionized (di) filtered water upon use into various concentrations, including 0.0019 mg/mL, 0.0056 mg/mL, 0.0169 mg/mL, 0.0507 mg/mL, and 0.152 mg/mL. Racemic praziquantel and L-praziquantel of the above indicated concentrations were also prepared in 100 mM Na Gluconate. […]
The following testing protocol was performed. […] Taste intensity was recorded on a computerized gLMS, analyzed and plotted. […]

[3] = Perceived sensation intensity (bitterness, sourness, astringency, nausea; gLMS): piperaquine vs. piperaquine neutralized with 1M KOH; details: 1M KOH vs. di water; 4-32 mg/mL
Description: as §1, §2, §3
The following testing protocol was performed. The tested solutions were provided to the subjects in random order. Subjects rinsed with di water at least four times over a 2-minute period prior to tasting each solution. […] Taste intensity was recorded on a computerized gLMS, analyzed and plotted.
Ten (10) subjects were given piperaquine in di water or neutralized with 1M KOH, at final concentrations of 4 mg/mL, 8 mg/mL, 16 mg/mL, 26 mg/mL, and 32 mg/mL and assessed according to the protocols described in Example 1.

SMILES	subjects reporting reduced bitterness in 100 mM Na Gluconate compared to that in di water [1]	subjects reporting reduced bitterness in Na Gluconate compared to that in di water ([1]; 100 mM Na Gluconate)	subjects reporting a reduced bitter intensity compared to that of racemic praziquantel ([2]; at certain concentrations (0.0019-0.152 mg/mL tested), adult subjects)	subjects scoring it less bitter compared to the racemic mixture ([2]; concentration 0.0507 mg/mL)	subjects reporting it less bitter (than racemic praziquantel) ([2]; concentration 0.152 mg/mL)	subjects showing that Na Gluconate reduced bitterness of L-praziquantel ([1]; 100 mM Na Gluconate, at certain praziquantel concentrations, comparator printed as racemic praziquantel alone)	subjects in whom pH neutralization by adding KOH reduced astringency [3]	subjects in whom pH neutralization by adding KOH reduced bitterness [3]	subjects in whom pH neutralization by adding KOH reduced nausea [3]	subjects in whom pH neutralization by adding KOH reduced sourness [3]
O=C(C1CCCCC1)N1CC(=O)N2CCc3ccccc3C2C1 (racemic) [racemic praziquantel, Praziquantel]	5 out of 7 subjects	6 out of 7 subjects	–	–	–	–	–	–	–	–
O=C(C1CCCCC1)N1CC(=O)N2CCc3ccccc3[C@@H]2C1 [L-praziquantel, levo-praziquantel]	3 out of 7 subjects	4 out of 7 subjects	10 out of 11 subjects	7 out of 11 subjects	8 out or 11 subjects	4 out of 7 subjects	–	–	–	–
Clc1ccc2c(N3CCN(CCCN4CCN(c5ccnc6cc(Cl)ccc56)CC4)CC3)ccnc2c1 [piperaquine, Piperaquine]	–	–	–	–	–	–	10/10	10/10	5/10	9/10
